Test system: MAb 4009-85-3 (ECACC 8808/2503)
Assay: recovery of hydroxyatrazine from spiked soil extracts by competitive ELISA
Design: species or system Maus
Conditions: extract diluted 1:40

`CCNc1nc(O)nc(NC(C)C)n1` [OH-Atrazin, Hydroxyatrazin] was tested, and the “Hydroxyatrazin Rückgewinnungsrate (%)” value (soil Collombey (Schweiz), 1,4 % Humus, pH 7,4, 100 ppb added) was 107%, the “Hydroxyatrazin Rückgewinnungsrate (%)” value (soil Les Evouettes (Schweiz), 2,6 % Humus, pH 6,2, 100 ppb added) was 94% and the “Hydroxyatrazin Rückgewinnungsrate (%)” value (soil Risilon (Israel), 1,8 % Humus, pH 7,8, 20 ppb added) was 91%. The “Hydroxyatrazin Rückgewinnungsrate (%)” value (soil Risilon (Israel), 60 ppb added) was 92%, the “Hydroxyatrazin Rückgewinnungsrate (%)” value (soil Risilon (Israel), 200 ppb added) was 90% and the “Hydroxyatrazin Rückgewinnungsrate (%)” value (soil Risilon (Israel), 600 ppb added) was 93%. The “Hydroxyatrazin Rückgewinnungsrate (%)” value (soil Stein (Schweiz), 5 % Humus, pH 7,1, 100 ppb added) was 110% and the “Hydroxyatrazin Rückgewinnungsrate (%)” value (soil Vetroz (Schweiz), 9,3 % Humus, pH 7,3, 100 ppb added) was 97%.
